PubChem BioAssay AID743121 – NCATS, 2013
Assay: 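Genes whose silencing strengthens cell killing by camptothecin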 (primary screen). Cell system: MDA-MB-231 cells, a human breast cancer line. Reagent: single siRNA against human genes, 20 nM siRNA (0.8 pmol per well). Timing: 120 h (drug added 48 h after transfection, read 72 h later). Conditions: camptothecin 20 nM (about EC30) for 72 h; vehicle 0.1% DMSO in parallel plates. Detection: 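CellTiter-Glo ATP signal, scaled to control siRNA as percent viability; sensitisation given as log2 of untreated divided by camptothecin-treated viability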. Scale: log2 vehicle/camptothecin viability: higher = stronger sensitisation to camptothecin. Active means: 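Active genes have an RSA gene-level p-value below 0.001, computed from the ratios of their separate siRNAs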.
Here is a random part of about 26,000 deposited reagents. 167 of them (0.63%) were called active. 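Calls are per gene from RSA p-values that are not deposited; an individual active-marked siRNA can sensitise only weakly.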 The numbers tell different reagents against one gene apart. Not all columns of the deposit are shown.

ELOB #1 → log2 vehicle/camptothecin viability = -0.158; call = inactive
ELOB #2 → log2 vehicle/camptothecin viability = 0.783; call = inactive
ELOB #3 → log2 vehicle/camptothecin viability = -0.445; call = inactive
ELOB #4 → log2 vehicle/camptothecin viability = -0.0147; call = inactive
RAG1 #1 → log2 vehicle/camptothecin viability = -0.0937; call = inactive
RAG1 #2 → log2 vehicle/camptothecin viability = -0.478; call = inactive
RAG1 #3 → log2 vehicle/camptothecin viability = 0.0962; call = inactive
RAG1 #4 → log2 vehicle/camptothecin viability = -0.000737; call = inactive
SPTAN1 #1 → log2 vehicle/camptothecin viability = 0.232; call = inactive
SPTAN1 #2 → log2 vehicle/camptothecin viability = 0.302; call = inactive
SPTAN1 #3 → log2 vehicle/camptothecin viability = -0.312; call = inactive
SPTAN1 #4 → log2 vehicle/camptothecin viability = 0.465; call = inactive
RFX1 #1 → log2 vehicle/camptothecin viability = 1.85; call = inactive
RFX1 #2 → log2 vehicle/camptothecin viability = -0.573; call = inactive
RFX1 #3 → log2 vehicle/camptothecin viability = -0.315; call = inactive
RFX1 #4 → log2 vehicle/camptothecin viability = 0.021; call = inactive

Records above whose gene name starts with S or s:
SPTAN1 #1 → log2 vehicle/camptothecin viability = 0.232; call = inactive
SPTAN1 #2 → log2 vehicle/camptothecin viability = 0.302; call = inactive
SPTAN1 #3 → log2 vehicle/camptothecin viability = -0.312; call = inactive
SPTAN1 #4 → log2 vehicle/camptothecin viability = 0.465; call = inactive

Further results follow.
PTGR2 #1 → log2 vehicle/camptothecin viability = -0.387; call = inactive
PTGR2 #2 → log2 vehicle/camptothecin viability = -0.472; call = inactive
PTGR2 #3 → log2 vehicle/camptothecin viability = -0.239; call = inactive
PTGR2 #4 → log2 vehicle/camptothecin viability = -0.0478; call = inactive
MAP3K1 #1 → log2 vehicle/camptothecin viability = -0.328; call = inactive
MAP3K1 #2 → log2 vehicle/camptothecin viability = 0.236; call = inactive
MAP3K1 #3 → log2 vehicle/camptothecin viability = -0.14; call = inactive
MAP3K1 #4 → log2 vehicle/camptothecin viability = -0.418; call = inactive
HERPUD1 #1 → log2 vehicle/camptothecin viability = 0.213; call = inactive
HERPUD1 #2 → log2 vehicle/camptothecin viability = 0.305; call = inactive
HERPUD1 #3 → log2 vehicle/camptothecin viability = -0.162; call = inactive
CASP10 #1 → log2 vehicle/camptothecin viability = 0.315; call = active
CASP10 #2 → log2 vehicle/camptothecin viability = 0.124; call = active
CASP10 #3 → log2 vehicle/camptothecin viability = 0.494; call = active
CASP10 #4 → log2 vehicle/camptothecin viability = 0.229; call = active
FGF23 #1 → log2 vehicle/camptothecin viability = -0.0975; call = inactive
FGF23 #2 → log2 vehicle/camptothecin viability = -0.26; call = inactive
FGF23 #3 → log2 vehicle/camptothecin viability = 0.0163; call = inactive
FGF23 #4 → log2 vehicle/camptothecin viability = -0.223; call = inactive
DNASE1 #1 → log2 vehicle/camptothecin viability = 0.0516; call = inactive
DNASE1 #2 → log2 vehicle/camptothecin viability = -0.121; call = inactive
DNASE1 #3 → log2 vehicle/camptothecin viability = -0.173; call = inactive
DNASE1 #4 → log2 vehicle/camptothecin viability = 1.09; call = inactive
E2F8 #1 → log2 vehicle/camptothecin viability = -0.357; call = inactive
E2F8 #2 → log2 vehicle/camptothecin viability = -0.218; call = inactive
E2F8 #3 → log2 vehicle/camptothecin viability = -0.223; call = inactive
E2F8 #4 → log2 vehicle/camptothecin viability = -0.307; call = inactive
SYNJ2 #1 → log2 vehicle/camptothecin viability = -0.309; call = inactive
SYNJ2 #2 → log2 vehicle/camptothecin viability = -0.243; call = inactive
SYNJ2 #3 → log2 vehicle/camptothecin viability = -0.396; call = inactive
SYNJ2 #4 → log2 vehicle/camptothecin viability = -0.395; call = inactive
